Assay: Cleaning effect: removal of drilling fluid from a measuring beaker
Conditions: Table 1; products used as 5% aqueous solutions, 200 ml, 8 g ester-oil drilling fluid aged 16 h at 200° F., shaken 3 minutes; reduction in weight

For Na lauryl sulfate C12/14 [V1], the “Performance in % (cleaning performance)” value was 75%.
With Na lauryl sulfate C12 [V2] the “Performance in % (cleaning performance)” value was 62%.

Reference: US7959743B2, “Lithium salts of fatty alcohol sulphates for cleaning boreholes, boring devices and borings” (priority 2004, dated 2011)
